Here are results for two molecules from article PMC10118886.

The chains behind the UniProt entries cited, without tags or fusion partners.
UniProt Q9HCE7: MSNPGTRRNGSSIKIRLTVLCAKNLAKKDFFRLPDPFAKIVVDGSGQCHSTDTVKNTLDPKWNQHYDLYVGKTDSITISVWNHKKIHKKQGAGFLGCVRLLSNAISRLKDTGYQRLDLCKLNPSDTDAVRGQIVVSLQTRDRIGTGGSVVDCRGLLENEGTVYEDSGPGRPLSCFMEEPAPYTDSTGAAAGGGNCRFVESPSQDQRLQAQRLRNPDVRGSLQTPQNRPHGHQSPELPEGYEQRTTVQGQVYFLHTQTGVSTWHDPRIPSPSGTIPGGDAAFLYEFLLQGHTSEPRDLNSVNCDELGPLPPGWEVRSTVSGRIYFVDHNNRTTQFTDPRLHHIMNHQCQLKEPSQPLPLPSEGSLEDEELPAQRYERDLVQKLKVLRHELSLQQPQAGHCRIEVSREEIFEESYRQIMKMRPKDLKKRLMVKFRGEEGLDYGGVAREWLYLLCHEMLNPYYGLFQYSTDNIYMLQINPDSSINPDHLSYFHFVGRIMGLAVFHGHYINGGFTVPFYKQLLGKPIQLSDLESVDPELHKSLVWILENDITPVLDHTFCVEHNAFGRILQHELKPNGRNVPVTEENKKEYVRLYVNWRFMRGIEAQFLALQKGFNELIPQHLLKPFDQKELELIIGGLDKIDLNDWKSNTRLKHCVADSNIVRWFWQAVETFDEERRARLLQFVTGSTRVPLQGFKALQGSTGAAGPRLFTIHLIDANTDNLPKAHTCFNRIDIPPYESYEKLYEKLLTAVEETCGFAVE

These are yes or no findings as the source states them, for the method shown. Binding seen in cells or lysates may run through a third protein. Some results given as binding are weak or reduced against the parent protein; the word gives no strength.

Test [1] has as its target T1, Nuclear factor-erythroid 2-related factor 2 (Nrf2) (human (endogenous in LF cells)) (UniProt Q16236).
T1 sequence: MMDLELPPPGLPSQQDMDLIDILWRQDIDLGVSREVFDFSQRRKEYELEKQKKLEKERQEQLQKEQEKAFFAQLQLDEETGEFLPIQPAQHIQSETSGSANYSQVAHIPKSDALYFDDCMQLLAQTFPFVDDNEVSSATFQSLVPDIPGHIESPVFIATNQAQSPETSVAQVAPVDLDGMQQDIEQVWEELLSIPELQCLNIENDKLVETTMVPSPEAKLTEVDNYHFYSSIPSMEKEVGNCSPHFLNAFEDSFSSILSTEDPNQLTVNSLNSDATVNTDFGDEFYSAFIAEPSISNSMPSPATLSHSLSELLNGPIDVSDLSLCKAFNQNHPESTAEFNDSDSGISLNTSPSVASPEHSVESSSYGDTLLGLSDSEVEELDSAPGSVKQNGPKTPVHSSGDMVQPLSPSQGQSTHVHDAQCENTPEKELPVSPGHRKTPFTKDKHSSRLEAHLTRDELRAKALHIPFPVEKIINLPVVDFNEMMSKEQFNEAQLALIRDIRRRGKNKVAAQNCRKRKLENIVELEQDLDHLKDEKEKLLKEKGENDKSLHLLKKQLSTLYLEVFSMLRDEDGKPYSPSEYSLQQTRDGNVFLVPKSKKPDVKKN
The test is described as follows: co-IP; reciprocal co-IP from LF cell lysate (NP-40 lysis solution); anti-Smurf1 or anti-Nrf2 antibody on Protein A/G beads, overnight at 4°C; western blot with anti-Smurf1 or anti-NRF2 antibodies. A general note: Immunoblotting shows a protein as a band on a membrane.

In test [2] the target is Smurf1 (human (endogenous in LF cells)) (UniProt Q9HCE7). The description is as above.

With “Smurf1 (from UniProt Q9HCE7 1-757) (enzyme)”, the binding result in test [1] is recorded as “binds”.

B1: Nuclear factor-erythroid 2-related factor 2 (Nrf2) (protein, UniProt Q16236 1-605)
chain: T1 sequence
B1: the binding entry in test [2] was “binds”.
